{"source": "paper PMC6476934", "about": "“A Flavor Lactone Mimicking AHL Quorum-Sensing Signals Exploits the Broad Affinity of the QsdR Regulator to Stimulate Transcription of the Rhodococcal qsd Operon Involved in Quorum-Quenching and Biocontrol Activities” (Frontiers in Microbiology, 2019)", "target": "T1, QsdR (His-tagged) (UniProt A0A0C2W9F0)", "T1 sequence (looked up)": "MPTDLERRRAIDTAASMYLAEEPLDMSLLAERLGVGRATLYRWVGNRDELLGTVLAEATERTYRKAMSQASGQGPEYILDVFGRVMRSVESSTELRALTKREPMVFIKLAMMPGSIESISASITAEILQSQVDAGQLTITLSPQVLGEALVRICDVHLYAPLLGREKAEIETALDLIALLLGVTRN", "test": "EMSA", "conditions": "LightShift Chemiluminescent EMSA Kit buffer (composition, salt, pH not stated), QsdR in Qiagen elution buffer with 50% glycerol, 20 min at room temperature, recombinant protein, residues 1-186, protein details: His (pET19, Ni-NTA), label: biotin (biotinylated primers), probe letters rebuilt from the primers and the genome", "note": "Construct, isoform or probe ends are uncertain for at least one entry. A weaker result is weaker than the reference pair of the same experiment. Where a protein sequence is shown, tags need not be part of it. At least one verdict was read from the data and is not stated in words by the source.", "data": [{"sequence": "GGTAGGCATCGGGACATTCTCTCCGGTTGTCCGGTACTGCACAATTTCGGCGGTCGAACAGAGGTGGGCTTCGGGTGGCTCGAGCCTATTGACGAACCAAGCGACGTGAGACACACTAGCTCATTGTCTCATGTTAGTGATGGCGATCACAGTCAGGGGTTCGATCGATGAG (double strand) [qsdR-qsdA intergenic DNA fragment]", "values": [{"measurement": "binding result", "setting": "gamma-caprolactone (GCL), ligand/QsdR ratio 0.1-100, free DNA rises with GCL", "result": "binds more weakly"}, {"measurement": "binding result", "setting": "homoserine lactone (HSL), ligand/QsdR ratio 0.1-100", "result": "binds more weakly"}, {"measurement": "binding result", "setting": "no ligand, 3 ug QsdR, 0.4 ng DNA", "result": "binds"}]}]}
